The list shows a part of the results, in another mix than the full data. At the low end of the ranking the order means little.
Molecular target: T1, ETV3L (UniProt Q6ZN32)
T1 sequence: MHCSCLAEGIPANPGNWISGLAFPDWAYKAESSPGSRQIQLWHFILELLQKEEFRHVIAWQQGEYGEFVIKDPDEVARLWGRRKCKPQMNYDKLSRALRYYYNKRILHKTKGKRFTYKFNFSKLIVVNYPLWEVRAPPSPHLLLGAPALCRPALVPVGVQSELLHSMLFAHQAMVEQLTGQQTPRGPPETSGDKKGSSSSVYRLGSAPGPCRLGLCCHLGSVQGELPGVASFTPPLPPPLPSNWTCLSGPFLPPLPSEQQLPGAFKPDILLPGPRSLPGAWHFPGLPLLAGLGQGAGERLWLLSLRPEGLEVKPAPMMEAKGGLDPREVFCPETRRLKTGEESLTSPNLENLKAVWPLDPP
Experiment: DAPPL (digital affinity profiling via proximity ligation, sequencing)
Details: 10 mM Tris-HCl pH 7.5, 50 mM NaCl, 1 mM DTT, 4% glycerol, room temperature, 30 min; GST-TFs on glutathione beads, 16-mer random dsDNA library, 0.1% …; high values mean tight binding; double strand, one strand shown; scale: fold enrichment (6-mer frequency, TF over GST control)

| Sequence | binding signal |
| --- | --- |
| CAGTAA | 0.717 |
| TAGCCA | 0.798 |
| CTGTGA | 0.501 |
| GAGCGA | 0.669 |
| AAACGT | 0.923 |
| AGCGCG | 0.771 |
| CACGGT | 0.919 |
| GGTGGC | 0.754 |
| GACATA | 0.867 |
| TAGTCG | 0.442 |
| GACCAG | 0.705 |
| AGTCAA | 0.647 |
| GCATGT | 0.797 |
| GGCGAG | 0.515 |
| GGCCGA | 0.798 |
| GTGATC | 0.771 |
| GGGTCC | 0.883 |
| ATCGGA | 0.453 |
| GTCGAT | 0.654 |
| GTGCCA | 0.808 |

| Sequence | binding signal |
| --- | --- |
| GTCGGG | 0.213 |
| GAACGC | 0.783 |
| CTGGAG | 0.638 |
| ACCAGG | 0.762 |
| GTGCGA | 0.829 |
| GCTGTG | 0.61 |
| AGACCG | 0.467 |
| CGAGAC | 0.528 |
| GTTAGT | 0.765 |
| CGTCAG | 0.831 |
| GAGCTG | 0.617 |
| GGCAGA | 0.639 |
| GGTCCG | 0.817 |
| GTCGCA | 0.685 |
| GCGTGC | 0.728 |
| AGTTAG | 0.786 |
| CAGCAA | 0.916 |
| AGCGTG | 0.376 |
| GTAAGG | 0.763 |

Look-ups from the list.
binding signal with GTTAGT reads 0.765
binding signal with GAGCTG reads 0.617
binding signal with CGAGAC reads 0.528

From PMC7862700
